For at least one compound, name, drawing or mass did not settle the structure.
System: 20-kDa myosin light chain (LC20)
Assay: Measurement of myosin light chain 20 phosphorylation (LC20-P) in permeabilized myometrial strips
Set-up: species or system rat
Details: alpha-toxin permeabilized strips, pCa7; RU486-induced preterm labor; sham 11.81±1.73
Procedure: Measurements of myosin light chain 20 phosphorylation (LC20-P). Tissue preparation was as described above. After equilibration and stretching, the myometrial strips were permeabilized with 20 μg/ml alpha-toxin (List Biological Lab, Campbell, Calif.) at 34° C. for 30 min. The intracellular Ca2+ concentration was clamped at pCa7.0 for 12 min to prevent an artifactual triggering of contractions in response to the freezing solution. The measurement of LC20-P was performed by glycerol urea gels and western blots as previously published (Je et al., J. Physiol. 537, 567-577 (2001)). Moles phosphate per mole myosin light chain was calculated by dividing the density of the phosphorylated band by the sum of densities of phosphorylated plus the unphosphorylated bands.

CC#C[C@]1(O)CC[C@H]2[C@@H]3CCC4=CC(=O)CCC4=C3[C@@H](c3ccc(N(C)C)cc3)C[C@@]21C [RU486, 11 β-[4-Dimethylamino] phenyl-17β-hydroxy-17-[1-propynyl] estra-4,9-dien-3-one]
basal LC20-P level: 17.2±1.36 mol phosphate/mol LC20

From US20050014676A1, “Methods for delaying or inducing labor” (Boston Biomedical Research Institute, priority 2003, published 2005)
